# According to PMC10883266, “TTLL12 is required for primary ciliary axoneme formation in polarized epithelial cells” (EMBO Reports, 2023):
# Protein sequences, listed by entry. Tags and fused reporters are not part of them.
# UniProt Q14166: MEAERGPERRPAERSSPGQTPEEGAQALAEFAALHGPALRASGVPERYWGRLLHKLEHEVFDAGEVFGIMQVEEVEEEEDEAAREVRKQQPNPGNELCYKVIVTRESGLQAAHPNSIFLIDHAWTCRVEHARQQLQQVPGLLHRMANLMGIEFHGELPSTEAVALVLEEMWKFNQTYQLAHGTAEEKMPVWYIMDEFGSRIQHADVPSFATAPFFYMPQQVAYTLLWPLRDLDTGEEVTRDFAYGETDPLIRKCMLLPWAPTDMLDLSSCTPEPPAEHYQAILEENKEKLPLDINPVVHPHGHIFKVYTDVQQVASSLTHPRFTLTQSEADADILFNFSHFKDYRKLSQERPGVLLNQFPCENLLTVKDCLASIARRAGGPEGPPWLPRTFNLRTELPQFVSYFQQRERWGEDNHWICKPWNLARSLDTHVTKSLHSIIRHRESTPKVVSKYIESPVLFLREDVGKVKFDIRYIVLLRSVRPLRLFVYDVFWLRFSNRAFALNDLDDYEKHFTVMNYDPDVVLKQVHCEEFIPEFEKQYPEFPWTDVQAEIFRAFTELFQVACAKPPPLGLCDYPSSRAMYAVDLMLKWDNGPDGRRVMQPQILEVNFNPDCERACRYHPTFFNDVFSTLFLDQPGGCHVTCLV
# UniProt Q5SQI0: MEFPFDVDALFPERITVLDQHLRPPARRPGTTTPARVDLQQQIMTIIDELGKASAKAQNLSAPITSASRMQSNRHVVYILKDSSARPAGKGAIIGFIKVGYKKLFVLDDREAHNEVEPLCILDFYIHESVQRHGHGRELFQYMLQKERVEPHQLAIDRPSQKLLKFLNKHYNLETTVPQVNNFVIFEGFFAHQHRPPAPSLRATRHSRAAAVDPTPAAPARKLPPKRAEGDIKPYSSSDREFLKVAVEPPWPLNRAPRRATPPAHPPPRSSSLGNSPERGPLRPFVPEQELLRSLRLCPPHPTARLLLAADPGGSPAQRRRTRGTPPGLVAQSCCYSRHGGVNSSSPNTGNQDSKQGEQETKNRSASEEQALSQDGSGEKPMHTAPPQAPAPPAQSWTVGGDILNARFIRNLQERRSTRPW
# No constants are given. Whether binding was seen depends on the method and setting. Binding seen in cells or lysates may run through a third protein.
# Molecular target: endogenous TTLL12 (RPE1 cells) (human (endogenous in RPE1)) (UniProt Q14166)
# Test: co-IP; TTLL12 immunoprecipitated from wild-type or TTLL12 KO RPE1 cells with an anti-TTLL12 antibody; immunoblot for αTAT1
substance,measurement,value
endogenous αTAT1 (RPE1 cells) (from UniProt Q5SQI0 1-421) (enzyme),binding,no binding
